Test results from patent publication US20040214766A1.
These are yes or no findings as the source states them, for the method shown. Binding seen in cells or lysates may run through a third protein. Some results given as binding are weak or reduced against the parent protein; the word gives no strength. For some assays here: Sequences can lack the tags named with a protein. Values belong to the substance of their own block, whether it stands above or below them.

Chains of the proteins cited; added tags and fusions are not shown. Lines headed by an entry give the natural chain unless they say otherwise; changes in a name come on top. A line that says so, or that is headed by a name, gives the form on record, which may keep a tag or linker.
VEGF165 (P15692, form named): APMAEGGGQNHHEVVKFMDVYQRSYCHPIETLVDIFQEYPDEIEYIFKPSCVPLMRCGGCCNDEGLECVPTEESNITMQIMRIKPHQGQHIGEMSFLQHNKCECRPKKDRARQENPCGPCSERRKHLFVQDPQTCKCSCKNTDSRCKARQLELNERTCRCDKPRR
UniProt P49767: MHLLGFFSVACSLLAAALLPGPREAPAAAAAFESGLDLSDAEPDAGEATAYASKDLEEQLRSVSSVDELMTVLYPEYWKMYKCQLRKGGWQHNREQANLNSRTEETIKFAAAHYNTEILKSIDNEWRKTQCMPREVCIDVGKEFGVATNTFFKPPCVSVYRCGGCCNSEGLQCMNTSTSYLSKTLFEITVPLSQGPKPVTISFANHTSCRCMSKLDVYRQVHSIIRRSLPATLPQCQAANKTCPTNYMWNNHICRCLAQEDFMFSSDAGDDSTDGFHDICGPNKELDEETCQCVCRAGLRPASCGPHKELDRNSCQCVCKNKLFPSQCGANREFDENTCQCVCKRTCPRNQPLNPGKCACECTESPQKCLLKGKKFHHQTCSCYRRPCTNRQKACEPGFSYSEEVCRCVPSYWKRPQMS

Key:
[1] = target: T1, NRP-1-Fc construct (extracellular domain portion of murine NRP-1 fused to the Fc portion of human IgG1) (murine; human) (UniProt P97333); assay: pull-down of 35S-labeled VEGF165 medium with NRP-1-IgG and Protein A-Sepharose, with and without heparin
T1 sequence: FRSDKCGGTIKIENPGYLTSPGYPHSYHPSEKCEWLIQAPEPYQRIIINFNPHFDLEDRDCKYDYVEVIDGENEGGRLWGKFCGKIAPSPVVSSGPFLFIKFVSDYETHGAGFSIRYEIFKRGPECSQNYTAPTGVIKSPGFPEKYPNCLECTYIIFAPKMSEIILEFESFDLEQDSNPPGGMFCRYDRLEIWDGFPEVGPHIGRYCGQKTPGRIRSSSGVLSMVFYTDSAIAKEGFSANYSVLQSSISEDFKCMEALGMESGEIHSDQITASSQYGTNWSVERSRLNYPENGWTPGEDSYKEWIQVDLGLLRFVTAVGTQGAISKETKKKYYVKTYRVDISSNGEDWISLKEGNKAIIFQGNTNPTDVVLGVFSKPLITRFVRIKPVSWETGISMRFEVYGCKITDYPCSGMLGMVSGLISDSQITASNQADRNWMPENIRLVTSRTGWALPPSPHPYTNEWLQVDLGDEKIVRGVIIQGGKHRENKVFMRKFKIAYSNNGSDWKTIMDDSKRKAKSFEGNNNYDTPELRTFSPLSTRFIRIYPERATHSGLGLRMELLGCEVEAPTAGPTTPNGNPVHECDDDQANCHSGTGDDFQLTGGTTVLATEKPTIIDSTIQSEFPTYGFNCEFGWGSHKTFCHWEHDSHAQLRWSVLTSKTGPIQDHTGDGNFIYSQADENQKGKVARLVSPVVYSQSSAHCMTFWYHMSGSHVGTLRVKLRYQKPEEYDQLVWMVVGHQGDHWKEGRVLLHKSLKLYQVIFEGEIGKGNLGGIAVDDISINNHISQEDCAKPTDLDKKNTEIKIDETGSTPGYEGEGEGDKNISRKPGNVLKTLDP

[2] = target: T1, NRP-1-Fc construct (extracellular domain portion of murine NRP-1 fused to the Fc portion of human IgG1) (murine; human); assay: pull-down of 35S-labeled VEGF-C medium with NRP-1-IgG and Protein A-Sepharose, SDS-PAGE
[3] = target: hNRP-2 a17-IgG fusion protein (extracellular domain of human neuropilin-2, a17 isoform, fused to the human IgG1 Fc tail) (human) [IgG part: P01857]; assay: pull-down of 35S-labeled VEGF-C medium with hNRP-2 a17-IgG and Protein A-Sepharose, SDS-PAGE
[4] = target: T1, NRP-1-Fc construct (extracellular domain portion of murine NRP-1 fused to the Fc portion of human IgG1) (murine; human); assay: pull-down of 35S-labeled growth factor medium with receptor-IgG fusion and Protein A-Sepharose, SDS-PAGE
[5] = target: hNRP-2 a17-IgG fusion protein (extracellular domain of human neuropilin-2, a17 isoform, fused to the human IgG1 Fc tail) (human) [IgG part: P01857]; assay: as above

- binding [1]: binds
Substance: VEGF165 (from UniProt P15692 27-191) (ligand)

- binding [2]: binds
- binding [3]: binds
Substance: VEGF-C 29 kD isoform (partially processed form) (from UniProt P49767 32-227) (ligand)

- binding [4]: binds
- binding [5]: binds
Substance: VEGF-C (labeled medium of 293EBNA cells transfected with prepro-VEGF-C; mixture of isoforms) (from UniProt P49767 32-419) (ligand)
